Test results taken from PubChem BioAssay AID1487 (National Center for Advancing Translational Sciences (NCATS), 2009).
The list shows a part of the results. Further columns of the screen follow, without active or inactive calls. Compounds called inactive in the main read-out are mostly missing here. The note in brackets gives the kind of curve behind each potency; many fits are weak.

Experiment: qHTS Assay for Modulators of Lamin A Splicing
Conditions: HeLa LMNA splicing GFP/RFP minigene ratio, 48 h
Method in brief: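 S3 HeLa stable clones carrying a lamin A-EGFP splicing minigene plus DsRed2 were seeded at 600 cells/well in Opti-MEM with 2% FBS, pin-dosed and incubated 48 h at 37°C. Acumen cytometry (488 nm) gave the GFP/RFP total-intensity ratio.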

[1] = measured here: GFP splicing reporter channel
[2] = measured here: RFP viability control channel

SMILES	AC50 [1]	AC50 [2]
O=C(CCN1Cc2ccccc2C1)c1ccc2c(c1)OCCO2	12.6 µM [rising, single point]	2 µM [falling, partial curve, poor fit]
COC(=O)C1=C(C(=O)OC)[C@@H]2N(Cc3ccccc3)c3ccccc3[C@@]23C[C@@H](C(=O)OC)N(C(=O)CC(C)C)C3=N1	–	0.0794 µM [falling, full curve, poor fit]
CN(Cc1ccc(-n2cccn2)cc1)C(=O)c1cnn2c1NC(c1ccco1)CC2C(F)(F)F (stereo not given)	–	22.4 µM [rising, single point]
O=[N+]([O-])c1cc(/C=N/N/C(=N/c2ccccn2)c2ccccn2)ccc1O	–	7.08 µM [rising, partial curve]
O=S(=O)(Nc1ccc(N2CCCCC2)cc1)c1cccs1	10 µM [rising, partial curve]	12.6 µM [rising, single point]
Cc1c(NS(=O)(=O)c2ccc3c(c2)OCCO3)cccc1-c1nc2cccnc2s1	1.58 µM [rising, full curve, poor fit]	3.16 µM [rising, full curve]
CCOC(=O)C1C(=O)C=C(c2ccc(OC)cc2)CC1c1ccco1 (stereo not given)	–	17.8 µM [rising, partial curve, poor fit]
CCOc1ccc(S(=O)(=O)NCc2cccn2Cc2cccc(C)c2)cc1	–	10 µM [rising, partial curve, poor fit]
CCOC(=O)c1cc(-c2ccccc2)n(-c2cccc(C(=O)NC(C)(C)C)c2)c1C	–	8.91 µM [falling, partial curve, poor fit]
CCOc1ccc(NS(=O)(=O)c2cnc(Cl)c(Cl)c2)cc1	35.5 µM [rising, single point]	35.5 µM [rising, single point]
COc1cc(NC(=O)c2cccc(COCC(F)(F)C(F)F)c2)cc(OC)c1OC	–	11.2 µM [rising, partial curve, poor fit]
COc1cccc(Cn2c(=O)c(-c3cccs3)nc3cncnc32)c1	12.6 µM [falling, partial curve]	–
COc1cc2c(cc1OC)C(c1cc(OC)c(OC)c(OC)c1)NCC2 (stereo not given)	0.0224 µM [falling, full curve, poor fit]	0.0501 µM [falling, full curve, poor fit]
c1nc(N2CCOCC2)c2cc(-c3ccoc3)ccc2n1	17.8 µM [falling, partial curve, poor fit]	4.47 µM [falling, partial curve, poor fit]
CCN1CCc2c(sc(-n3cccc3)c2C(CCC(C)C)NC(=O)NCCC(=O)OC)C1 (stereo not given)	35.5 µM [rising, single point]	11.2 µM [rising, partial curve]
COc1ccc(-n2cc(-c3ccccc3)c3c(N4CCOCC4)ncnc32)cc1	8.91 µM [falling, partial curve]	25.1 µM [falling, single point]
Cc1ccc(/C=C/C(=O)OCC(=O)Nc2ccccc2Sc2ccccc2)cc1	–	0.00316 µM [falling, full curve, poor fit]
CCn1c(CSc2nc3ccccc3s2)nnc1SCC(=O)c1ccc2c(c1)OCCO2	–	2.82 µM [falling, partial curve, poor fit]
OC(CNCc1ccco1)Cn1c2ccccc2c2ccccc21 (stereo not given)	–	0.0112 µM [rising, full curve, poor fit]
COc1cc2c(cc1OC)CN(C(=S)Nc1ccc(OC(F)F)cc1)CC2	–	35.5 µM [falling, single point]
CC1(C)NC(=O)N(CCCOc2ccc3c(c2)CCC3)C1=O	15.8 µM [rising, single point]	35.5 µM [rising, single point]
COc1ccc(CNc2ncnc3ccc(-c4c(C)noc4C)cc23)c(OC)c1	2.82 µM [falling, full curve]	–
CN(c1ccccc1)S(=O)(=O)c1cccc(NC(=O)Cc2c(F)cccc2Cl)c1	8.91 µM [rising, partial curve, poor fit]	15.8 µM [rising, partial curve]
COC(=O)CN=Cc1c(C)[nH]n(-c2ccccc2)c1=O	–	0.112 µM [falling, partial curve, poor fit]
COc1ccc(CNc2ncnc3ccc(-c4cccc(C#N)c4)cc23)c(OC)c1	7.94 µM [falling, partial curve]	–
COc1ccc2c(c1)SCC/C2=C\CN1C(=O)CCC1=O	11.2 µM [rising, single point]	–
COc1ccc(/C=C/c2c([N+](=O)[O-])c(=O)n(C)c(=O)n2C)cc1O	–	31.6 µM [rising, single point]
CCC(C)NS(=O)(=O)c1ccc(OCC(=O)N2CCC(C)CC2)cc1 (stereo not given)	–	31.6 µM [rising, single point]

SMILES	AC50 [1]	AC50 [2]
Cc1nn(C(=O)/C(C#N)=C/N(C)C)c(C)c1C	–	0.501 µM [rising, full curve, poor fit]
CCOC(CCn1c(SCc2ccc([N+](=O)[O-])cc2)nc2ccccc2c1=O)OCC	31.6 µM [rising, single point]	35.5 µM [rising, single point]
N#Cc1cc(-c2ccccc2)nc(Oc2ccc(Cl)cc2)n1	3.98 µM [rising, full curve]	11.2 µM [rising, partial curve]
Cc1ccc(NC(=O)CSc2nc(C3CCCC3)nc3c2c(=O)n(C)c(=O)n3C)c(C)c1	0.355 µM [rising, full curve]	0.708 µM [rising, full curve, poor fit]
Cc1cccc(NC(c2ccc(C)s2)c2ccc3ccc(C)nc3c2O)n1 (stereo not given)	–	31.6 µM [rising, single point]
CCCNC(=O)c1ccc(C2SCC(=O)N2CCc2ccccc2)cc1 (stereo not given)	10 µM [rising, partial curve]	14.1 µM [rising, partial curve]
Cc1cccc(N2CCN(C(=O)Cc3ccc(Br)cc3)CC2)c1C	6.31 µM [rising, partial curve, poor fit]	20 µM [rising, single point]
COC(=O)c1ccc2nc(NC(=O)C3CCCCC3)sc2c1	0.0316 µM [falling, full curve]	–
COc1ccc2c(c1)CC(NC(=O)Nc1ccc(Br)c(C)c1)CO2 (stereo not given)	–	0.501 µM [rising, full curve, poor fit]
O=C(NC(=S)Nc1ccc(N2CCCCC2)cc1)c1cccs1	–	14.1 µM [rising, single point]
Cc1ccc(-c2cc(C(=O)Nc3ccc(S(=O)(=O)Nc4nc(C)cc(C)n4)cc3)c3ccccc3n2)cc1	15.8 µM [rising, partial curve]	22.4 µM [rising, single point]
CC(C)(C)c1nnc(N/N=C/c2ccccc2O)n(N)c1=O	–	6.31 µM [rising, partial curve]
Cc1ccc(-c2nc(Cn3c(SCc4ccc(F)cc4)nc4cccnc43)c(C)o2)cc1	22.4 µM [falling, partial curve, poor fit]	–
O=C(Nc1nnc(-c2cccs2)o1)c1cccc(C(F)(F)F)c1	–	7.94 µM [rising, partial curve]
CCOC(=O)N1CCc2c(sc(NCc3cccc(F)c3)c2C(=O)Nc2ccc(OCC)cc2)C1	0.0126 µM [rising, full curve, poor fit]	–
COc1cccc(-c2csc(N3CCN(CC(=O)Nc4ccc5c(c4)OCO5)CC3)n2)c1	–	15.8 µM [rising, single point]
COc1ccc(S(=O)(=O)N2CCC(O)(c3ccc4c(c3)OCO4)CC2)cc1	14.1 µM [rising, single point]	10 µM [rising, partial curve]
O=C(O)c1ccccc1COc1ccccc1Cl	35.5 µM [falling, single point]	–
[S-]C(=Nc1ccc(Cl)cc1)N[n+]1ccccc1	–	0.0891 µM [falling, full curve, poor fit]
CCC(C(=O)OCn1nnc2ccccc2c1=O)c1ccccc1 (stereo not given)	–	1.41 µM [falling, partial curve]
CCn1c(SCc2nc(-c3cccs3)no2)nnc1-c1c[nH]c2ccccc12	–	31.6 µM [rising, single point]
Cc1ccc(S(=O)(=O)NCC(=O)OCC(=O)c2cc(C)n(-c3ccccc3)c2C)cc1	–	8.91 µM [falling, partial curve, poor fit]
CC1(C)C2CC=C(/C=N/NC(=O)c3ccc(Cl)cc3)C1C2 (stereo not given)	10 µM [rising, partial curve]	15.8 µM [rising, partial curve]
COCCn1c(C)cc(C(=O)CSc2nc3ccccc3c(=O)n2Cc2ccco2)c1C	0.891 µM [rising, full curve, poor fit]	0.0794 µM [rising, full curve, poor fit]
CCOC(=O)c1csc(Nc2nc3ccc(F)cc3s2)n1	–	11.2 µM [rising, partial curve]
CCOc1ccccc1NC(=O)C1CCCN(S(=O)(=O)c2cccc3cccnc23)C1 (stereo not given)	–	12.6 µM [rising, partial curve]
COc1cc(/C=C(\C#N)C(=O)NC2CCCCC2C)ccc1OS(=O)(=O)c1ccc(C)cc1 (stereo not given)	35.5 µM [falling, single point]	35.5 µM [falling, single point]

Quoted at random: 2 records from the list, in no set order.
SMILES	AC50 [1]	AC50 [2]
CCOC(=O)N1CCc2c(sc(NCc3cccc(F)c3)c2C(=O)Nc2ccc(OCC)cc2)C1	0.0126 µM [rising, full curve, poor fit]	–
Cc1ccc(-c2cc(C(=O)Nc3ccc(S(=O)(=O)Nc4nc(C)cc(C)n4)cc3)c3ccccc3n2)cc1	15.8 µM [rising, partial curve]	22.4 µM [rising, single point]
